This note sets out measurements from PMC7778261.

Chains of the proteins cited; added tags and fusions are not shown. Lines headed by an entry give the natural chain unless they say otherwise; changes in a name come on top. A line that says so, or that is headed by a name, gives the form on record, which may keep a tag or linker.
UniProt P02340: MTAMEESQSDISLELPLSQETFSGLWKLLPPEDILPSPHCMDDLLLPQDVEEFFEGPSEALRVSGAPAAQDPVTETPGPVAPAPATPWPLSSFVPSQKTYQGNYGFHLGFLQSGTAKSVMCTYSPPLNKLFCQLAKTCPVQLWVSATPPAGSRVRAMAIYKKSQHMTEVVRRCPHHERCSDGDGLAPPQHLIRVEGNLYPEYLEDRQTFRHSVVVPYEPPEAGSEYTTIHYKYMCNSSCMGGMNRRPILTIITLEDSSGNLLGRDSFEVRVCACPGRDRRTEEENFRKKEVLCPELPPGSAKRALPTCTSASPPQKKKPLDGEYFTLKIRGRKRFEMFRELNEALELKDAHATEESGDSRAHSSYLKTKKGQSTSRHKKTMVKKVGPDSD
mouse MDM2 I438K (pcDNA3.1 plasmid) (P23804-1, form named): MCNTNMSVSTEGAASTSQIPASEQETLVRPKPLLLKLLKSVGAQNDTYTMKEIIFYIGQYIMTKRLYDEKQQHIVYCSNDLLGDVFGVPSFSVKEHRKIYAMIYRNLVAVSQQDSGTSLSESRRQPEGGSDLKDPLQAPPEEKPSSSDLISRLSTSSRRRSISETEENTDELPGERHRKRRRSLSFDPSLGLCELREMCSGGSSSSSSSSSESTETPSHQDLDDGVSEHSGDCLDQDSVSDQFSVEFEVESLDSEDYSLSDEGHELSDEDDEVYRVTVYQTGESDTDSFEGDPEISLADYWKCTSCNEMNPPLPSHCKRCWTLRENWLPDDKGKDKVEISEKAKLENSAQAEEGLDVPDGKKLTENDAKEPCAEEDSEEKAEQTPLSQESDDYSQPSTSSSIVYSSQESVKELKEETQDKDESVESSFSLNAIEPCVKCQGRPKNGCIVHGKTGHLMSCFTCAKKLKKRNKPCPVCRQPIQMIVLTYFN

No constants are given. Whether binding was seen depends on the method and setting. Binding seen in cells or lysates may run through a third protein. Some binding calls cover weakened binding; strength is not graded here. For part of these data: Sequences can lack the tags named with a protein.

One test concerns the target T1, Mouse FLAG-MDM4 (mouse) (UniProt O35618).
T1 sequence: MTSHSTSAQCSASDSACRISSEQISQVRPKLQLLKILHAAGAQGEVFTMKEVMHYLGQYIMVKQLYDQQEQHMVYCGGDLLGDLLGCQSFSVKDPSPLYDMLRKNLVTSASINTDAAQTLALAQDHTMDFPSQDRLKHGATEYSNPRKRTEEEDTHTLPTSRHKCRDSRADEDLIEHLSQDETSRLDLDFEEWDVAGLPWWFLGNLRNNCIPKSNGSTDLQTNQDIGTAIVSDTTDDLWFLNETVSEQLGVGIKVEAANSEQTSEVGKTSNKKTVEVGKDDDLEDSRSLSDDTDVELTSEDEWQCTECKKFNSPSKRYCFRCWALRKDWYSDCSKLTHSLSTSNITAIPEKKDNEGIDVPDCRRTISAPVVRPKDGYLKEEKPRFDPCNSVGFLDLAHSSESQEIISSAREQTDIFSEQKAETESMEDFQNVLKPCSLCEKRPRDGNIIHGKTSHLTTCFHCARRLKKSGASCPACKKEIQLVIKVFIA
Put plainly: co-IP; p53KO/KO; Mdm2KO/KO MEFs transfected with plasmid pairs (1:1), 10 µM MG-132 for 4 h; lysis in 150 mM NaCl, 50 mM Tris-HCl pH 8.0, 1% Triton X-100; antibody overnight at 4°C, Dynabeads Protein G; Western blot. (In general: Immunoblotting shows a protein as a band on a membrane.)

For test [1], the target named is mouse p53 (pcDNA3.1 plasmid) (mouse) (UniProt P02340). The test is described as above.

Take “mouse MDM2 wild type (pcDNA3.1 plasmid) (from UniProt P23804-1 1-489)”: the binding result with Mouse FLAG-MDM4 (mouse) is on record as “binds”.

Turning to “mouse MDM2 I438K (pcDNA3.1 plasmid) (from UniProt P23804-1 1-489)”, the binding result (with Mouse FLAG-MDM4 (mouse); in test [1]) was “binds” in each case.
